# Data: article PMC3814354, “Interaction of bacterial fatty-acid-displaced regulators with DNA is interrupted by tyrosine phosphorylation in the helix-turn-helix domain”
# B1: C-terminal domain (residues 101–194) of the fatty-acid-displaced regulator FatR (domain or fragment, UniProt O08335 101-194)
# chain: LFFLETKKDAHYLNHTSKKMIENLTQMLDDYFNKGKAEGVIRSLPSNVLIAIVLGAFLKIYQLVQTGDIEMDTDLITELEQCCWDAIKLHSSQK
# Tests used:
# [1] = target: TkmA, transmembrane activator (modulator) of the protein-tyrosine kinase PtkA (B. subtilis); test: two-hybrid; yeast two-hybrid, Gal4; TkmA or PtkA fused to the Gal4 DNA-binding domain screened against the B. subtilis library; mated diploid cells, growth on selective medium SD-LUH; specificity test with empty vectors
# [2] = target: PtkA, protein-tyrosine kinase (BY-kinase) (B. subtilis); test: as above
binder,measurement,setting,value
B1,binding,[1],binds
same,binding,[2],no binding

# No constants are given. Whether binding was seen depends on the method and setting. For some assays here: A result given as binding can be weak or reduced; the word gives no strength.
